PMC9788671
These are yes or no findings as the source states them, for the method shown. Binding seen in cells or lysates may run through a third protein. These calls come from enrichment with a bait or labelling near it, and not all partners need be listed.

Chains of the proteins cited; added tags and fusions are not shown.
UniProt Q9NZV8: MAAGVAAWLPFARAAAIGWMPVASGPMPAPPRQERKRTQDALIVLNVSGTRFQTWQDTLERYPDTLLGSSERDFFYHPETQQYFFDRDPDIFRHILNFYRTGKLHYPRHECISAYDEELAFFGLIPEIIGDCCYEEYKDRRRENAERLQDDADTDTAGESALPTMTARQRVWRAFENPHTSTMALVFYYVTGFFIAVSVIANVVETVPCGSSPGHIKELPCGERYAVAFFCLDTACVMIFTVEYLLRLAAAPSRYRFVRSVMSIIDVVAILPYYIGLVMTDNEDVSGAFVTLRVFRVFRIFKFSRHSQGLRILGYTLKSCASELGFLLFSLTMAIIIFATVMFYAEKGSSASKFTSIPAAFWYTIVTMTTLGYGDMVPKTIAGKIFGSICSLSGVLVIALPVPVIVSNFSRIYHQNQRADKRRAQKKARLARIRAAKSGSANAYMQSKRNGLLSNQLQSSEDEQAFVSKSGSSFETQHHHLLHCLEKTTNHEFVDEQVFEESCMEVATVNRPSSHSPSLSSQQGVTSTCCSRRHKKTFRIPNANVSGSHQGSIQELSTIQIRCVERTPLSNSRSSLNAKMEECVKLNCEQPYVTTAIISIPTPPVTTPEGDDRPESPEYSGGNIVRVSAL

Biological target: TAP-Kv4.2 (human) (UniProt Q9NZV8)
Experiment: affinity purification with mass spectrometry; TAP-Kv4.2 expressed by lentivirus in rat hippocampal neurons, harvested at DIV14; weak lysis buffer of the kit (0.1% NP-40); streptavidin resin, then calmodulin resin; gel cut into high and low molecular weight fragments; no MS of the control sample

binding	Binder
binds	Dcx (protein, UniProt Q9ESI7 1-365) MELDFGHFDERDKASRNMRGSRMNGLPSPTHSAHCSFYRTRTLQALSNEKKAKKVRFYRNGDRYFKGIVYAVSSDRFRSFDALLADLTRSLSDNINLLQGVRYIYTIDGSRKIGSMDELEEGESYVCSSDNFFKKVEYTKNVNPNWSVNVKTSANMKAPQSLASSNSAQARENKDFVRPKLVTIIRSGVKPRKAVRVLLNKKTAHSFEQVLTDITEAIKLETGVVKKLYTLDGKQVTCLHDFFGDDDVFIACGPEKFRYAQDDFSLDENECRVMKGNPSATAGPKASPTPQKTSAKSPGPMRRSKSPADSGNDQDANGTSSSQLSTPKSKQSPISTPTSPGSLRKHKDLYLPLSLDDSDSLGDSM
binds	Ppp2r2a (protein, UniProt P36876 1-447) MAGAGGGNDIQWCFSQVKGAVDDDVAEADIISTVEFNHSGELLATGDKGGRVVIFQQEQENKIQSHSRGEYNVYSTFQSHEPEFDYLKSLEIEEKINKIRWLPQKNAAQFLLSTNDKTIKLWKISERDKRPEGYNLKEEDGRYRDPTTVTTLRVPVFRPMDLMVEASPRRIFANAHTYHINSISINSDYETYLSADDLRINLWHLEITDRSFNIVDIKPANMEELTEVITAAEFHPNSCNTFVYSSSKGTIRLCDMRASALCDRHSKLFEEPEDPSNRSFFSEIISSISDVKFSHSGRYMMTRDYLSVKVWDLNMENRPVETYQVHEYLRSKLCSLYENDCIFDKFECCWNGSDSVVMTGSYNNFFRMFDRNTKRDITLEASRENNKPRTVLKPRKVCASGKRKKDEISVDSLDFNKKILHTAWHPKENIIAVATTNNLYIFQDKVN
binds	Slc25a3 (protein, UniProt P16036 45-356) AVEGYSCEFGSMKYYALCGFGGVLSCGLTHTAVVPLDLVKCRMQVDPQKYKGIFNGFSITLKEDGVRGLAKGWAPTLIGYSMQGLCKFGFYEVFKALYSNILGEENTYLWRTSLYLAASASAEFFADIALAPMEAAKVRIQTQPGYANTLREAVPKMYKEEGLNAFYKGVAPVWMRQIPYTMMKFACFERTVEALYKFVVPKPRSECTKAEQLVVTFVAGYIAGVFCAIVSHPADSVVSVLNKEKGSTASQVLQRLGFRGVWKGLFARIIMIGTLTALQWFIYDSVKVYFRLPRPPPPEMPESLKKKLGLTE
binds	Ca3 (protein, UniProt P14141 1-260) MAKEWGYASHNGPEHWHELYPIAKGDNQSPIELHTKDIRHDPSLQPWSVSYDPGSAKTILNNGKTCRVVFDDTFDRSMLRGGPLSGPYRLRQFHLHWGSSDDHGSEHTVDGVKYAAELHLVHWNPKYNTFGEALKQPDGIAVVGIFLKIGREKGEFQILLDALDKIKTKGKEAPFNHFDPSCLFPACRDYWTYHGSFTTPPCEECIVWLLLKEPMTVSSDQMAKLRSLFASAENEPPVPLVGNWRPPQPIKGRVVRASFK
binds	Hpx (protein, UniProt P20059 24-460) NPLPAAHETVAKGENGTKPDSDVIEHCSDAWSFDATTMDHNGTMLFFKGEFVWRGHSGIRELISERWKNPVTSVDAAFRGPDSVFLIKEDKVWVYPPEKKENGYPKLFQEEFPGIPYPPDAAVECHRGECQSEGVLFFQGNRKWFWDFATRTQKERSWPAVGNCTAALRWLERYYCFQGNKFLRFNPVTGEVPPRYPLDARDYFISCPGRGHGKLRNGTAHGNSTHPMHSRCNADPGLSALLSDHRGATYAFSGSHYWRLDSSRDGWHSWPIAHHWPQGPSAVDAAFSWDEKVYLIQGTQVYVFLTKGGNNLVSGYPKRLEKELGSPPGISLDTIDAAFSCPGSSKLYVTSGRRLWWLDLKSGAQATWAELSWPHEKVDGALCLEKSLGPYSCSSNGPNLFFIHGPNLYCYSSIDKLNAAKSLPQPQKVNSILGCSQ
binds	Prdx2 (protein, UniProt P35704 1-198) MASGNAHIGKPAPDFTGTAVVDGAFKEIKLSDYRGKYVVLFFYPLDFTFVCPTEIIAFSDHAEDFRKLGCEVLGVSVDSQFTHLAWINTPRKEGGLGPLNIPLLADVTKSLSQNYGVLKNDEGIAYRGLFIIDAKGVLRQITVNDLPVGRSVDEALRLVQAFQYTDEHGEVCPAGWKPGSDTIKPNVDDSKEYFSKHN
binds	Pygm (protein, UniProt P09812 1-842) MSRPLSDQDKRKQISVRGLAGVENVSDLKKNFNRHLHFTLVKDRNVATPRDYYFALAHTVRDHLVDRWIRTQQHYYAKDPKRIYYLSLELYMGRTLQNTMVNLALENACDEATYQLGLDMEELEEIEEDAGLGNGGLGRLAACFLDSMATLGLAAYGYGIRYEFGIFNQKICGGWQMEEADDWLRYGNPWEKARPEFTLPVHFYGRVEHTSQGAKWVDTQVVLAMPYDTPVPGYRNNVVNTMRLWSAKAPPYFNLKDFNVGGYIQAVLDRNLAENISRVLYPNDKFFEGKELRLKQEYFVVAATLQDIIRRFKSSKFGCRDPVRTNFDAFPDKVAIQLNDTHPSLAIPELIRILVDLERLDWDKAWDVTVKTCAYTNHTVLPEALERWPVHLMETLLPRHLQIIYEINQRFLNRVAAAFPGDVDRLRRMSLVEEGAVKRINMAHLCIAGSHAVNGVARIHSEILKKTIFKDFYELEPHKFQNKTNGITPRRWLVLCNPGLAEVIAERIGEEYISDLDQLRKLLSYLDDQAFIRDVAKVKQENKLKFSAYLETEYKVHINPNSLFDVQVKRIHEYKRQLLNCLHIITLYNRIKREPNRFMVPRTIMIGGKAAPGYHMAKMIIKLITAIGDVVNHDPAVGDRFRVIFLENYRVSLAEKVIPAADLSEQISTAGTEASGTGNMKFMLNGALTIGTMDGANVEMAEEAGEDNFFIFGMRVEDVERLDQRGYNAQEYYDRIPELRQIIEQLSSGFFSPKQPDLFKDIVNMVMHHDRFKVFADYEEYIKCQDKVSELYKNPREWTRMVIRNIATSGKFSSDRTIAQYAREIWGLEPSRQRLPAPDEKI
binds	Pccb (protein, UniProt P07633 29-541) SLCSQPVSVNERIENKRHAALLGGGQRRIDAQHKRGKLTARERISLLLDPGSFLESDMFVEHRCADFGMAAEKNKFPGDSVVTGRGRINGRLVYVFSQDFTVFGGSLSGAHAQKICKIMDQAITVGAPVIGLNDSGGARIQEGVESLAGYADIFLRNVTASGVIPQISLIMGPCAGGAVYSPALTDFTFMVKDTSYLFITGPEFVKSVTNEDVTQEQLGGAKTHTTVSGVAHRAFDNDVDALCNLREFLNFLPLSNQDPASIRECHDPSDRLVPELDTVVPLESSKAYNMLDIIHAVIDEREFFEIMPNYAKNIVIGFARMNGRTVGIVGNQPNVASGCLDINSSVKGARFVRFCDAFSIPLITFVDVPGFLPGTAQEYGGIIRHGAKLLYAFAEATVPKITVITRKAYGGAYDVMSSKHLLGDTNYAWPTAEIAVMGAKGAVEIIFKGHEDVEAAQAEYVEKFANPFPAAVRGFVDDIIQPSSTRARICCDLEVLASKKVHRPWRKHANVPL
binds	Mdh1 (protein, UniProt O88989 1-334) MSEPIRVLVTGAAGQIAYSLLYSIGNGSVFGKDQPIILVLLDITPMMGVLDGVLMELQDCALPLLQDVIATDKEEVAFKDLDVAVLVGSMPRREGMERKDLLKANVKIFKSQGAALEKYAKKSVKVIVVGNPANTNCLTASKSAPSIPKENFSCLTRLDHNRAKSQIALKLGVTADDVKNVIIWGNHSSTQYPDVNHAKVKLQGKEVGVYEALKDDSWLKGEFITTVQQRGAAVIKARKLSSAMSAAKAISDHIRDIWFGTPEGEFVSMGVISDGNSYGVPDDLLYSFPVVIKNKTWKFVEGLPINDFSREKMDLTAKELTEEKETAFEFLSSA
binds	Ca1 (protein, UniProt B0BNN3 1-261) MASADWGYDSKNGPDQWSKLYPIANGNNQSPIDIKTSEAKHDSSLKPVSVSYNPATAKEIVNVGHSFHVVFDDSSNQSVLKGGPLADSYRLTQFHFHWGNSNDHGSEHTVDGAKYSGELHLVHWNSAKYSSAAEAISKADGLAIIGVLMKVGPANPNLQKVLDALSSVKTKGKRAPFTNFDPSSLLPSSLDYWTYFGSLTHPPLHESVTWVICKESISLSPEQLAQLRGLLSSAEGEPAVPVLSNHRPPQPLKGRTVRASF
binds	A1m (protein, UniProt Q63041 25-1500) ATGKPRYVVLVPSELYAGVPEKVCVHLNHLNETVTLNVTLEYGVQYSNLLIDQAVDKDSSYCSSFTISRPLSPSALIAVEIKGPTHHFIKKKSMWITKAESPVFVQTDKPIYKPGQTVKFRVVSVDISFRPVNETFPVVYIENPKRNRIFQWQNVDLPGGLHQLSFPLSVEPALGIYKVVVQKDSGKKIEHSFEVKEYVLPKFEVQVKMPKTMAFLEEELVVTACGLYTYGKPVPGLVTMKVCRKYTQSYSNCHGQHSKSICEEFSKQADEKGCFRQVVKTKVFQPRQKGYDMKIEVEAKIKEDGTGIELTGTGSCEIANTLSKLKFTKANTFYRPGLPFFGQVLLVDEKGQPIPNKNLTVQVNSVRSQFTFTTDEHGLANILIDTTNFTFSFMGIRVIYKQNNICFDNWWVDEYHTQADHSAARIFSPSRSYIQLELVLGTLACGQTQEIRIHFLLNEDALKDAKDLTFYYLIKARGSIFNSGSHVLPLEQGKVKGVVSFPIRVEPGMAPVAKLIVYTILPNEELIADVQKFDIEKCFANTVNLSFPSAQSLPASDTHLTVKATPLSLCALTAVDQSVLLLKPEAKLSPQSIYNLLPQKAEQGAYLGPLPYKGGENCIKAEDITHNGIVYTPKQDLNDNDAYSVFQSIGLKIFTNTRVHKPRYCPMYQAYPPLPYVGEPQALAMSAIPGAGYRSSNIRTSSMMMMGASEVAQEVEVRETVRKYFPETWIWDMVPLDLSGDGELPVKVPDTITEWKASAFCLSGTTGLGLSSTISHKVFQPFFLELTLPYSVVRGEAFILKATVLNYMPHCIRIHVSLEMSPDFLAVPVGSHEDSHCICGNERKTVSWAVTPKSLGEVNFTATAEALQSPELCGNKVAEVPALVQKDTVVKPVIVEPEGIEKEQTYNTLLCPQDAELQENWTLDLPANVVEGSARATQSVLGDILGSAMQNLQNLLQMPYGCGEQNMVLFVPNIYVLEYLNETQQLTEAIKSKAISYLISGYQRQLNYQHSDGSYSTFGDRGMRHSQGNTWLTAFVLKAFAQAQSYIYIEKTHITNAFNWLSMKQRENGCFQQSGSLLNNAMKGGVDDEVTLSAYITIALLEMPLPVTHSVVRNALFCLETAWASISNSQESHVYTKALLAYAFALAGNRAKRSEVLESLNKDAVNEEESVHWQRPKNVEENVREMRSFSYKPRAPSAEVEMTAYVLLAYLTSASSRPTRDLSSSDLTTASKIVKWISKQQNSHGGFSSTQDTVVALQALSKYGAATFTKSNKEVSVTIESSGTVSGTLHVNNGNRLLLQEVRLADLPGNYITKVSGSGCVYLQTSLKYNILPEAEGEAPFTLKVNTLPLNFDKAEHHRKFQIHINVSYIGERPNSNMVIVDVKMVSGFIPVKPSVKKLQDQSNIQRTEVNTNHVLIYIEKLTNQTMGFSFAVEQDIPVKNLKPAPVKVYDYYETDEFAIEEYSAPFSSDSEQGNA
